The supplement of paper PMC12067093, “Discovery and optimisation of a covalent ligand for TRIM25 and its application to targeted protein ubiquitination” (Chemical Science, 2025)
This is one part of the list.

Chains of the proteins cited; added tags and fusions are not shown. Lines headed by an entry give the natural chain unless they say otherwise; changes in a name come on top.
UniProt Q14683: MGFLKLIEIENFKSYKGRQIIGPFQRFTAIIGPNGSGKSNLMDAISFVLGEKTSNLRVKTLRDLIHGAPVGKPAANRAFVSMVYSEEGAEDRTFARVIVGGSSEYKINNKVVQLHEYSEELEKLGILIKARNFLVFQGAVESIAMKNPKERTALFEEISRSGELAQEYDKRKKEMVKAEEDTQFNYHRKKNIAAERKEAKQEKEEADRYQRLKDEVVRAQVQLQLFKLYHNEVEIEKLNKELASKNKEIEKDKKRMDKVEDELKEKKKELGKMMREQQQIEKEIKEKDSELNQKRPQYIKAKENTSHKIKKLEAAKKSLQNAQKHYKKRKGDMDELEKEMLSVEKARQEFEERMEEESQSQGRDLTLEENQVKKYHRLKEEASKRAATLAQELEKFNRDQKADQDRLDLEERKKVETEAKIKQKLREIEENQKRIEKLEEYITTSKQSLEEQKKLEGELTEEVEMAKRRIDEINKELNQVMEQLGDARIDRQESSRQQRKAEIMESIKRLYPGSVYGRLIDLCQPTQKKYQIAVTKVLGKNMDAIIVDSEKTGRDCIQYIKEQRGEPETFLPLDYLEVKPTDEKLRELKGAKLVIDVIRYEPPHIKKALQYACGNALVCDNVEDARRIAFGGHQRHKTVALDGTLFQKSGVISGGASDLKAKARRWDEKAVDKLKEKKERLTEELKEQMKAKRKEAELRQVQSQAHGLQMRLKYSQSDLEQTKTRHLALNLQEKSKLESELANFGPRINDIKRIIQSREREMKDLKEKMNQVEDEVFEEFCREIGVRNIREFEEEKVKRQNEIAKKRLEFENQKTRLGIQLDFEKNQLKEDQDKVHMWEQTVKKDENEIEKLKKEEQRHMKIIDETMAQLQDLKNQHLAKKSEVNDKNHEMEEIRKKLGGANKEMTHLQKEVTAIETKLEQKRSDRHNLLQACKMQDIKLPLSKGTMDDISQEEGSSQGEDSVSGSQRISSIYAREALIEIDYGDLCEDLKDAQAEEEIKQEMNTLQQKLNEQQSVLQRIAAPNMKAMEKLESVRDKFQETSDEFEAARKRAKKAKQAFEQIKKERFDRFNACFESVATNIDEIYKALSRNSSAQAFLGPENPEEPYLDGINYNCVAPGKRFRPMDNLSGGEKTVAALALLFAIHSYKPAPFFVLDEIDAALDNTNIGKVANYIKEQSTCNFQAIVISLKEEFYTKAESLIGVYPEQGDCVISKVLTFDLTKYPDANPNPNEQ
UniProt O95391: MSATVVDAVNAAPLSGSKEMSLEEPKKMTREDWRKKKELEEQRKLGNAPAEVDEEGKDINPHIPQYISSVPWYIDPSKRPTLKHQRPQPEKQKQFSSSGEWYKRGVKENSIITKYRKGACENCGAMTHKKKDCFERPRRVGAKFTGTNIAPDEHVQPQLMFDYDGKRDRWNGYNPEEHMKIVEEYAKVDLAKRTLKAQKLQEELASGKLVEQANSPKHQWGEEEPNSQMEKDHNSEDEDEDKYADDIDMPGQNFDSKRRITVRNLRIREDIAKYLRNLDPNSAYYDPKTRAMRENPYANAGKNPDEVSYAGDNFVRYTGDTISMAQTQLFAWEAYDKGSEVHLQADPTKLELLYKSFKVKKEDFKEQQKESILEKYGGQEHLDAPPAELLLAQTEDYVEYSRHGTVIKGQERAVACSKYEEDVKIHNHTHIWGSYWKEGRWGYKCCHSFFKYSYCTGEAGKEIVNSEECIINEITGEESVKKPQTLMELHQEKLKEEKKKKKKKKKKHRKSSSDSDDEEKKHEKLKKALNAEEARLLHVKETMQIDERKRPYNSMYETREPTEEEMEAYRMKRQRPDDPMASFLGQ
UniProt O60264, whole entry, looked up: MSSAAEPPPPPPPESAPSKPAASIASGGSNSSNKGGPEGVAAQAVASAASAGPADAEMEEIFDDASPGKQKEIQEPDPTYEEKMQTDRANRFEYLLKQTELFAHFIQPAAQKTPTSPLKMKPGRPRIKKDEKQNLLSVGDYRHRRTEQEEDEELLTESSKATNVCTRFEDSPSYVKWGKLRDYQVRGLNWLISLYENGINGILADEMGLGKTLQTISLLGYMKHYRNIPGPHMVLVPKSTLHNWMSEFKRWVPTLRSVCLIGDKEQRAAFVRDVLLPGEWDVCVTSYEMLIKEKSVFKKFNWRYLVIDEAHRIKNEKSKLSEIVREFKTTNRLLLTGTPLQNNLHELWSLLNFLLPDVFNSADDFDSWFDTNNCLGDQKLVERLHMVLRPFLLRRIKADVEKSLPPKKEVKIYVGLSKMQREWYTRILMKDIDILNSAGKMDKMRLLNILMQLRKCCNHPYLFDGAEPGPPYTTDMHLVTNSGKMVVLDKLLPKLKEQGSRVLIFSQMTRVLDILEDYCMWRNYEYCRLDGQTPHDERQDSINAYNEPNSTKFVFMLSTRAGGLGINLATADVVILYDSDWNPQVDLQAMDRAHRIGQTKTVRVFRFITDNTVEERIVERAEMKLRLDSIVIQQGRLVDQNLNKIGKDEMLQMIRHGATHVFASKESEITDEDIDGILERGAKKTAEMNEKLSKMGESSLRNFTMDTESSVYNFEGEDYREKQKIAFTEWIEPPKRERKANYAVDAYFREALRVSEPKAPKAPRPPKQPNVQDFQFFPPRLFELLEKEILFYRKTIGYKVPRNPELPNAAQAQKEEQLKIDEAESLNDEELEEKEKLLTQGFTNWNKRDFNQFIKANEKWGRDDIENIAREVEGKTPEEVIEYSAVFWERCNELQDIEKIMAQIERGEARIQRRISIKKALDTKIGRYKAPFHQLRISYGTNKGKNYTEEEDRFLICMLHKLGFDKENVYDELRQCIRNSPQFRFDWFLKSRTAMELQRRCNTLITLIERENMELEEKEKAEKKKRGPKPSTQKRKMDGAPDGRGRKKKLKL
UniProt Q96Q15: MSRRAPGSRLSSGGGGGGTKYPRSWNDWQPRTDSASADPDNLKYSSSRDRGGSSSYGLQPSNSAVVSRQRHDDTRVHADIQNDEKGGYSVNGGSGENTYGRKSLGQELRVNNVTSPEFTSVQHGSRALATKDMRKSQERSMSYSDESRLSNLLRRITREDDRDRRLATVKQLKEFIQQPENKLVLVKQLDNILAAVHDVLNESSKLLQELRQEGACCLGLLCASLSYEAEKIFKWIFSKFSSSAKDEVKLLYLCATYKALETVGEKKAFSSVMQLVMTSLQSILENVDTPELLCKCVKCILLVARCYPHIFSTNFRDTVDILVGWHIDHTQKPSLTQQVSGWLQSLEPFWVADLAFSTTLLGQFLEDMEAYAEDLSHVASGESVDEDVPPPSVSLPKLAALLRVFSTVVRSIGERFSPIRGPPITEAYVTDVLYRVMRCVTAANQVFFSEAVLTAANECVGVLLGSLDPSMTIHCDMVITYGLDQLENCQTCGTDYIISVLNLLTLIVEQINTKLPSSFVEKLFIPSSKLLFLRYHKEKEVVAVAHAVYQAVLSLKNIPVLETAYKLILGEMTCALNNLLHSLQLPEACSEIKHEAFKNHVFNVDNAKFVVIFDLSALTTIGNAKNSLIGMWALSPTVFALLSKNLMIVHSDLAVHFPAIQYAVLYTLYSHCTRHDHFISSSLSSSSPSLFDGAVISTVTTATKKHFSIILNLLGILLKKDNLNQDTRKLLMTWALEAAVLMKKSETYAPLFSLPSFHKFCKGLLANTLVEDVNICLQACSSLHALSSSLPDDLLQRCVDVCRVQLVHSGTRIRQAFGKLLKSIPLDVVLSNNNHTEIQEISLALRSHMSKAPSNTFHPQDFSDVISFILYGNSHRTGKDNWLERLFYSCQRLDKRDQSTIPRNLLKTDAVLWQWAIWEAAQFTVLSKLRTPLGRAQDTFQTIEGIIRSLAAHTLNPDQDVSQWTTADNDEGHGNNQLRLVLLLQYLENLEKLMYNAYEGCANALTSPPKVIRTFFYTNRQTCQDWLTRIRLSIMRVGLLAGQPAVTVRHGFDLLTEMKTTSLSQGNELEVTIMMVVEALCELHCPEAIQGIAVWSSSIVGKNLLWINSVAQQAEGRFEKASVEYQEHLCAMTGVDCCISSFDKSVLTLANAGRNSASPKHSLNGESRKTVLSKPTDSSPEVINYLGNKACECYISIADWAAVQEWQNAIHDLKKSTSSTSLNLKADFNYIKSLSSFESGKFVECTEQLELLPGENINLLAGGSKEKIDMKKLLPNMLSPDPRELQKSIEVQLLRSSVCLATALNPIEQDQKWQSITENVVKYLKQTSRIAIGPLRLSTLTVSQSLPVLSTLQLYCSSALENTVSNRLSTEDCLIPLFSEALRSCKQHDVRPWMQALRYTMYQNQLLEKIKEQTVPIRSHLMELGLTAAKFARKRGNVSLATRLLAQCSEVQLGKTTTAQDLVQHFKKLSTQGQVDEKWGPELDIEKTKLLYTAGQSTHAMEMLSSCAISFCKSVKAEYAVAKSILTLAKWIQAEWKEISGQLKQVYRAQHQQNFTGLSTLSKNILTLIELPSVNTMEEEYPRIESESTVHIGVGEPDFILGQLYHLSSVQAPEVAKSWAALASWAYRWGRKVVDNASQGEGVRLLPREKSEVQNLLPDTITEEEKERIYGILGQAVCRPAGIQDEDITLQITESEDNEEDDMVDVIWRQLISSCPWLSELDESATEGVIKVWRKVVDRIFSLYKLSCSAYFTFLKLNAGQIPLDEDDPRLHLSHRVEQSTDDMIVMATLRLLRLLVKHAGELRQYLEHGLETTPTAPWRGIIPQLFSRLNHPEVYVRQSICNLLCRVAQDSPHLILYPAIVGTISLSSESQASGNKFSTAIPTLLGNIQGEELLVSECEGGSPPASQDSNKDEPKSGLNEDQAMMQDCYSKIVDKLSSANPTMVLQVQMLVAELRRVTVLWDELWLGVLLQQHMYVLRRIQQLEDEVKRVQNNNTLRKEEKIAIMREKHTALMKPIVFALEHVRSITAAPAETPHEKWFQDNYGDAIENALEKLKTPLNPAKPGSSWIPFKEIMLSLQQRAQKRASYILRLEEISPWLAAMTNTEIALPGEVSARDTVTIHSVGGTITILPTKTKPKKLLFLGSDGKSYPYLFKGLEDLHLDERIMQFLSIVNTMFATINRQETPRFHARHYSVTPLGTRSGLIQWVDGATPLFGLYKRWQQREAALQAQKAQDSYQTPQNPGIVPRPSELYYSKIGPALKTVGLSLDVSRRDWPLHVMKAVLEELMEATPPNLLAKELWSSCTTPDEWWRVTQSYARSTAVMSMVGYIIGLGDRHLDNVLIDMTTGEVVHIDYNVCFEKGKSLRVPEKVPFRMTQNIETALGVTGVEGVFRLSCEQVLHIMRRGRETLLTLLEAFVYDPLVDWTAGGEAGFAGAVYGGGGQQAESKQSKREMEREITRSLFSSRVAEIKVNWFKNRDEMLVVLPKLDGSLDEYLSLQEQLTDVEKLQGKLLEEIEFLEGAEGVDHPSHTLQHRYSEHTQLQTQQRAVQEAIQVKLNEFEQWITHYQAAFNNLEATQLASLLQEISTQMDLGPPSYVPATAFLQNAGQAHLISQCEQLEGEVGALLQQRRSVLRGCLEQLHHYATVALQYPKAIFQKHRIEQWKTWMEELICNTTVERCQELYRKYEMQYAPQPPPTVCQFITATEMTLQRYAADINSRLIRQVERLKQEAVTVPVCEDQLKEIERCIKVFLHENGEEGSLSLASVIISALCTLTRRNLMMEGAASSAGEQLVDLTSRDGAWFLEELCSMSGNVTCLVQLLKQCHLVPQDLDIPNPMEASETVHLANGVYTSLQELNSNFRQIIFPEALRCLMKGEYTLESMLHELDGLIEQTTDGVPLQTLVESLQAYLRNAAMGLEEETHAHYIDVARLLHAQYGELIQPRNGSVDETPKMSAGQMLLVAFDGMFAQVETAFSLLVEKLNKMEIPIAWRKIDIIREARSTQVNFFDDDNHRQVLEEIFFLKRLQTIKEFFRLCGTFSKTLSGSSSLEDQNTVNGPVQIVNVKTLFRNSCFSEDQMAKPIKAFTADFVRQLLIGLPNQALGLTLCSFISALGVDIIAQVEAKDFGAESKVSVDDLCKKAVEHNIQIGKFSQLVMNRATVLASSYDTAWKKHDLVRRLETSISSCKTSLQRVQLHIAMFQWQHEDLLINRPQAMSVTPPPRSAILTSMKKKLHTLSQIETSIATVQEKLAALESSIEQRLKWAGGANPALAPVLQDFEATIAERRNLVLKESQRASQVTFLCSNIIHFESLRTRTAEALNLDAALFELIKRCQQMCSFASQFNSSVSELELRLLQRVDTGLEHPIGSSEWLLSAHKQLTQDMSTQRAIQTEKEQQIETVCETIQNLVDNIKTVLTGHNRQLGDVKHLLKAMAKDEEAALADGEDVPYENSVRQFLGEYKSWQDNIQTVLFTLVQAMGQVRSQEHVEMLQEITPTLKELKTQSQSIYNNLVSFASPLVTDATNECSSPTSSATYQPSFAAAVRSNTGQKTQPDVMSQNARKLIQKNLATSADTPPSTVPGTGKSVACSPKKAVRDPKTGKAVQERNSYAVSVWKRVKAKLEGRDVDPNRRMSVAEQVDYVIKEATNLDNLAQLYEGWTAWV

Compound: Cc1cc(ccc1-c1ccccc1)C(=O)N1CCCN(CC1)C(=O)CCl [compound 10]
Assay: probe-labelled cysteine peptide fold change vs DMSO (competition) (log2 fold change); higher = less target engagement (more negative = stronger competition)
Conditions: THP-1, incubation time: 4 h
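Note: competitive profiling in live THP-1 cells: cysteine peptides tagged with an iodoacetamide desthiobiotin (IA-DTB) probe, intensity after compound treatment relative to DMSO-treated cells.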

| Target | probe-labelled cysteine peptide fold change (10 µM) | probe-labelled cysteine peptide fold change (50 µM) |
| --- | --- | --- |
| SMC1A_Q14683_619_ALQYACGNALVCDNVEDAR (UniProt Q14683) | 0.262 | -0.0931 |
| SNRNP200_O75643_1278_WLSCETQLPVSFR (UniProt O75643) | 0.171 | 0.334 |
| SMAP2_Q8WU79_80_SVNLDQWTQEQIQCMQEMGNGK (UniProt Q8WU79) | -0.0858 | -0.00988 |
| SMCHD1_A6NHR9_1967_CNDSLR (UniProt A6NHR9) | -0.215 | -0.299 |
| SLU7_O95391_455_YSYCTGEAGK (UniProt O95391) | -0.102 | 0.172 |
| SNRNP48_Q6IEG0_26_LQEELNEFVESGCR (UniProt Q6IEG0) | -0.308 | 0.17 |
| SMG7_Q92540_537_NLSNNCDTGEK (UniProt Q92540) | -0.339 | 0.384 |
| SMARCA5_O60264_457_CCNHPYLFDGAEPGPPYTTDMHLVTNSGK (UniProt O60264) | -0.00404 | 0.0338 |
| SLC7A1_P30825_628_TPDGNLDQCK (UniProt P30825) | -0.301 | 0.0792 |
| SMC1A_Q14683_781_MNQVEDEVFEEFCR (UniProt Q14683) | 0.0419 | 0.0443 |
| SMARCB1_Q12824_350_NTGDADQWCPLLETLTDAEMEK (UniProt Q12824) | -0.108 | 0.0621 |
| SLFN11_Q7Z7L1_884_TADPAILPNVLICLASR (UniProt Q7Z7L1) | 0.0806 | -0.324 |
| SLC4A1AP_Q9BWU0_200_LSGCDVCLEHPSVSR (UniProt Q9BWU0) | -0.124 | -0.072 |
| SMAD5_Q99717_378_IPSSCSLK (UniProt Q99717) | -0.106 | -0.185 |
| SMC1A_Q14683_523_LIDLCQPTQK (UniProt Q14683) | 0.0226 | 0.15 |
| SMC2_O95347_585_CIAPETLR (UniProt O95347) | -0.0829 | -0.00562 |
| SLK_Q9H2G2_204_DSFIGTPYWMAPEVVMCETSK (UniProt Q9H2G2) | -0.196 | -0.141 |
| SLC9A3R1_O14745_206_IVEVNGVCMEGK (UniProt O14745) | 0.165 | -0.0744 |
| SMARCA5_O60264_1001_CNTLITLIERENMELEEK (UniProt O60264) | 0.24 | -0.297 |
| SLFN11_Q7Z7L1_322_VNPFCCAVFSEAPNSWIVEDK (UniProt Q7Z7L1) | 0.382 | 0.575 |
| SLC3A2_P08195_431_WCSWSLSQAR (UniProt P08195) | -0.11 | 0.147 |

| Target | probe-labelled cysteine peptide fold change (10 µM) | probe-labelled cysteine peptide fold change (50 µM) |
| --- | --- | --- |
| SMCHD1_A6NHR9_970_LIVHCK (UniProt A6NHR9) | 0.145 | -0.0731 |
| SLC4A7_Q9Y6M7_120_VQFILGTEDDDEEHIPHDLFTEMDELCYR (UniProt Q9Y6M7) | -0.182 | 0.386 |
| SNRNP70_P08621_39_HHNQPYCGIAPYIR (UniProt P08621) | -0.0761 | -0.168 |
| SLK_Q9H2G2_86_VIDTKSEEELEDYMVEIDILASCDHPNIVK (UniProt Q9H2G2) | 0.0586 | -0.47 |
| SMC4_Q9NTJ3_323_KNHVCQYYIYELQK (UniProt Q9NTJ3) | -0.102 | -0.347 |
| SMARCB1_Q12824_167_TFPLCFDDHDPAVIHENASQPEVLVPIRLDMEIDGQKLR (UniProt Q12824) | -0.136 | -0.124 |
| SNRNP200_O75643_1702+1706_CVIMCQGSK (UniProt O75643) | -0.122 | -0.188 |
| SMAP1_Q8IYB5_85_SVNLDQWTAEQIQCMQDMGNTK (UniProt Q8IYB5) | -0.304 | 0.3 |
| SMC1A_Q14683_1073_FDRFNACFESVATNIDEIYK (UniProt Q14683) | 0.178 | -0.171 |
| SMYD3_Q9H7B4_263_DQYCFECDCFR (UniProt Q9H7B4) | -0.041 | -0.0538 |
| SMARCC2_Q8TAQ2_80_CFLDFK (UniProt Q8TAQ2) | -0.0668 | -0.0784 |
| SMARCA4_P51532_423_QEVVVCMR (UniProt P51532) | -0.0988 | -0.0647 |
| SMCHD1_A6NHR9_1751_IAHLAQIEDDRAAMVISWHLASDMDCVVTLTTDAAR (UniProt A6NHR9) | 0.225 | 0.259 |
| SND1_Q7KZF4_826+837_DIQNTQCLLNVEHLSAGCPHVTLQFADSK (UniProt Q7KZF4) | 0.116 | -0.205 |
| SMS_P52788_337_LYCPVEFSK (UniProt P52788) | 0.0759 | 0.136 |
| SMPD4_Q9NXE4_698_QLPDCIVGEDGLILTPLGR (UniProt Q9NXE4) | 0.0446 | 0.108 |
| SLC39A8_Q9C0K1_113_FSVICPAVLQQLNFHPCEDRPK (UniProt Q9C0K1) | -0.103 | -0.0399 |
| SMARCD2_Q92925_298_CTLLLMLDHQPPQYK (UniProt Q92925) | 0.0597 | 0.105 |
| SMG1_Q96Q15_2396_LSCEQVLHIMR (UniProt Q96Q15) | 0.123 | 0.266 |
| SNRNP200_O75643_331_MMILYCTLLASAQSEAEK (UniProt O75643) | -0.0246 | 0.526 |
| SMG1_Q96Q15_1245_FVECTEQLELLPGENINLLAGGSK (UniProt Q96Q15) | -0.138 | -0.257 |

| Target | probe-labelled cysteine peptide fold change (10 µM) | probe-labelled cysteine peptide fold change (50 µM) |
| --- | --- | --- |
| SNRNP40_Q96DI7_72_CSSLQAPIMLLSGHEGEVYCCK (UniProt Q96DI7) | 0.131 | 0.192 |
| SMPD1_P17405_590_GHPPSEPCGTPCR (UniProt P17405) | -0.138 | 0.195 |
| SND1_Q7KZF4_152_LSECEEQAK (UniProt Q7KZF4) | -0.318 | -0.0168 |
| SNRNP200_O75643_1115_TLNLCK (UniProt O75643) | 0.0532 | 0.141 |
| SMYD5_Q6GMV2_101_LTGKPGQVLPHPELCTVR (UniProt Q6GMV2) | -0.0572 | -0.199 |
| SLC7A7_Q9UM01_349_EGHLPDAICMIHVER (UniProt Q9UM01) | 0.0327 | -0.262 |
| SLFN13_Q68D06_487_EQDAEGQDYCTR (UniProt Q68D06) | 0.0321 | -0.0182 |
| SLC44A1_Q8WWI5_117_SVALCVAACPR (UniProt Q8WWI5) | -0.133 | -0.0893 |
| SNAPC1_Q16533_11_GTPPGLQTDCEALLSR (UniProt Q16533) | 0.651 | 0.347 |
| SMC1A_Q14683_1180_EQSTCNFQAIVISLK (UniProt Q14683) | 0.0747 | 0.0957 |
| SLC4A1AP_Q9BWU0_435_EAMIQCSLEACR (UniProt Q9BWU0) | 0.124 | -0.25 |
| SMCHD1_A6NHR9_897_GPVNSCQGK (UniProt A6NHR9) | -0.117 | -0.305 |
| SMARCA5_O60264_1001_CNTLITLIER (UniProt O60264) | 0.123 | 0.462 |
| SLK_Q9H2G2_86_SEEELEDYMVEIDILASCDHPNIVK (UniProt Q9H2G2) | 0.51 | 0.523 |
| SMG1_Q96Q15_3587_SVACSPK (UniProt Q96Q15) | -0.222 | -0.23 |
| SMYD5_Q6GMV2_378_ENYLFVCSCPK (UniProt Q6GMV2) | -0.0959 | -0.244 |
| SLC39A10_Q9ULF5_598_NYLCIEEEK (UniProt Q9ULF5) | -0.213 | -0.202 |
| SMARCC2_Q8TAQ2_486_LNPQEYLTSTACR (UniProt Q8TAQ2) | -0.115 | -0.00908 |
| SLK_Q9H2G2_1138_DLQLQCEANVR (UniProt Q9H2G2) | 0.0336 | 0.0461 |
| SMARCAD1_Q9H4L7_462_CEDISNK (UniProt Q9H4L7) | 0.0395 | 0.098 |
| SMG5_Q9UPR3_39_LDLILCNK (UniProt Q9UPR3) | 0.114 | 0.533 |

| Target | probe-labelled cysteine peptide fold change (10 µM) | probe-labelled cysteine peptide fold change (50 µM) |
| --- | --- | --- |
| SND1_Q7KZF4_837_DIQNTQCLLNVEHLSAGCPHVTLQFADSK (UniProt Q7KZF4) | 0.17 | -0.228 |
| SMC6_Q96SB8_1013_CLDEFDVYMDMVNRR (UniProt Q96SB8) | 0.153 | 0.134 |
| SLMAP_Q14BN4_673_EWNALETECHSLK (UniProt Q14BN4) | 0.314 | 0.539 |
| SMARCC1_Q92922_761_VDPTYGLESSCIAGTGPDEPEK (UniProt Q92922) | 0.0416 | 0.51 |
| SLC35F6_Q8N357_36_WADNFMAEGCGGSK (UniProt Q8N357) | -0.213 | -0.248 |
| SNRPB_P14678_45_HMNLILCDCDEFR (UniProt P14678) | 0.245 | 0.299 |
| SMG5_Q9UPR3_865_AQSAMSPYLVPDTQALCHHLPVIR (UniProt Q9UPR3) | 0.126 | -0.066 |
| SNRNP200_O75643_1580_LTAIDILTTCAADIQR (UniProt O75643) | -0.0527 | 0.0566 |
| SNRNP40_Q96DI7_99_LILLWNVYGDCDNYATLK (UniProt Q96DI7) | 0.0915 | 0.303 |
| SLFN13_Q68D06_884_TADPAILPNILICLASR (UniProt Q68D06) | 0.0825 | 0.0105 |
| SLK_Q9H2G2_993_AELANIERECLNNK (UniProt Q9H2G2) | 0.136 | -0.273 |
| SMARCC1_Q92922_520_NLTGDVCAVMR (UniProt Q92922) | 0.0738 | 0.013 |
| SNRNP200_O75643_2011_FCNRYPNIELSYEVVDK (UniProt O75643) | 0.153 | 0.0225 |
| SLPI_P03973_51+57_YKKPECQSDWQCPGK (UniProt P03973) | -0.847 | -1.07 |
| SLC44A1_Q8WWI5_113_SVALCVAACPR (UniProt Q8WWI5) | 0.0475 | -0.0376 |
| SMC5_Q8IY18_176_VAALNIQVGNLCQFLPQDK (UniProt Q8IY18) | -0.236 | 0.0618 |
| SNRNP200_O75643_1592_FLHCTEK (UniProt O75643) | 0.134 | 0.133 |
| SMC3_Q9UQE7_972_KLEQCNTELK (UniProt Q9UQE7) | 0.0921 | 0.174 |
| SNRNP200_O75643_133_DILCGAADEVLAVLK (UniProt O75643) | 0.0456 | -0.0684 |
| SLU7_O95391_469_EIVNSEECIINEITGEESVK (UniProt O95391) | -0.103 | 0.205 |
